Results: PMC4982760, “Small-molecule inhibitors identify the RAD52-ssDNA interaction as critical for recovery from replication stress and for survival of BRCA2 deficient cells” (eLife, 2016)
The exact form of at least one protein or probe is not confirmed.

Amino acid sequences for entries named in this document (tags omitted). A change or cut given only in a name is not applied to a line headed by its entry.
UniProt P43351: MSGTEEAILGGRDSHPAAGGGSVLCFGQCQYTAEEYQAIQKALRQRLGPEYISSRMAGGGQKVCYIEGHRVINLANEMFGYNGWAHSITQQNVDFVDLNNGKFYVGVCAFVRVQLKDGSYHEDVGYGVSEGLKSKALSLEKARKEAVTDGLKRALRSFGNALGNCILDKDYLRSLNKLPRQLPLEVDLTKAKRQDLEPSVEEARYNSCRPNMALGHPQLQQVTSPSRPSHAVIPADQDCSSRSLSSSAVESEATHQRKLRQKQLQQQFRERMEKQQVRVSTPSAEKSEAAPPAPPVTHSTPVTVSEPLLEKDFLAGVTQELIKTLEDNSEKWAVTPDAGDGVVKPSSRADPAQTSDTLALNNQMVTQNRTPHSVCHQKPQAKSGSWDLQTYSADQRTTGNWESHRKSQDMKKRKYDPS

Biological target: RAD52 (UniProt P43351)
Assay: FRET
Conditions: 1 nM dsDNA, stoichiometric complex at 10 nM RAD52, dsDNA bent; FRET: 30 mM Tris-acetate pH 7.5, 1 mM DTT, 0.1 mg/mL BSA, 25 C; recombinant protein

CGTTGCGGATGGCTTAGAGCTTAATTGC / GCAATTAAGCTCAAGCCATCCGCAACG [Cy3-Oligo28-Cy5 / Oligo28-REV]
binding result: binds
